doi:10.1101/2021.11.24.469949
No constants are given. Whether binding was seen depends on the method and setting. Binding seen in cells or lysates may run through a third protein. Here binding means that the protein was enriched with, or labelled near, the bait; the list need not be complete. For some of these results: Sequences can lack the tags named with a protein.

Legend:
Assay in all cases: affinity purification with mass spectrometry
[1] = molecular target: T1, 3xFLAG tagged REV (Arabidopsis) (UniProt Q9SE43)
T1 sequence: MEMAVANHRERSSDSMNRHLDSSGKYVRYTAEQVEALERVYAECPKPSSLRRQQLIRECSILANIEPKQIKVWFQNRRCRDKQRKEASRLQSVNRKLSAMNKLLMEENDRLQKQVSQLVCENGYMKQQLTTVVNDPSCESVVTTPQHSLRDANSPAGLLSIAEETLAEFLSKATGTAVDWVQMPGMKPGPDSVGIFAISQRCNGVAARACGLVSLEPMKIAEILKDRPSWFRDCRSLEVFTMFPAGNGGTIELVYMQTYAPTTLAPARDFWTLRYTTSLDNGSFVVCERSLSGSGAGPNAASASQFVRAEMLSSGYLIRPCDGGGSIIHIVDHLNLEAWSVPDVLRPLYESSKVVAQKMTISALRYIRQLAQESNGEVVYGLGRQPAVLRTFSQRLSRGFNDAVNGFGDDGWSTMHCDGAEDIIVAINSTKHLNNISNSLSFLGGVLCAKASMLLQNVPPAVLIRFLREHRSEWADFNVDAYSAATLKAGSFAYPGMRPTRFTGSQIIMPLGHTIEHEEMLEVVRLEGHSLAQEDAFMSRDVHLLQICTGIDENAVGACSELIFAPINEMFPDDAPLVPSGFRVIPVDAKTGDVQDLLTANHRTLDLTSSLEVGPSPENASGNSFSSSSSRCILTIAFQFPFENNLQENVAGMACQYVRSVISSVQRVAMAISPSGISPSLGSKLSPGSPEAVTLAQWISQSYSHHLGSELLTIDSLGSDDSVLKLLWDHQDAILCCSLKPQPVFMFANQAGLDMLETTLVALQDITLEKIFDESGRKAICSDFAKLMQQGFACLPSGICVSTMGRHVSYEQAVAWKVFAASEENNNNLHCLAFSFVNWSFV

[2] = molecular target: T2, ZPR3-tdTomato-3xFLAG (Arabidopsis) (UniProt Q9LXI8)
T2 sequence: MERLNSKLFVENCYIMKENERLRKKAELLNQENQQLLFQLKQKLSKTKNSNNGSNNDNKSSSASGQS

[3] = molecular target: T3, ZPR2-tdTomato-3xFLAG (Arabidopsis) (UniProt Q9LZX5)
T3 sequence: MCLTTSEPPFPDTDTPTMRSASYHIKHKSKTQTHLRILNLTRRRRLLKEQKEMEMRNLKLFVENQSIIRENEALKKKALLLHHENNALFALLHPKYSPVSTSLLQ

[4] = molecular target: T4, 3xFLAG tagged PHB (Arabidopsis) (UniProt O04291)
T4 sequence: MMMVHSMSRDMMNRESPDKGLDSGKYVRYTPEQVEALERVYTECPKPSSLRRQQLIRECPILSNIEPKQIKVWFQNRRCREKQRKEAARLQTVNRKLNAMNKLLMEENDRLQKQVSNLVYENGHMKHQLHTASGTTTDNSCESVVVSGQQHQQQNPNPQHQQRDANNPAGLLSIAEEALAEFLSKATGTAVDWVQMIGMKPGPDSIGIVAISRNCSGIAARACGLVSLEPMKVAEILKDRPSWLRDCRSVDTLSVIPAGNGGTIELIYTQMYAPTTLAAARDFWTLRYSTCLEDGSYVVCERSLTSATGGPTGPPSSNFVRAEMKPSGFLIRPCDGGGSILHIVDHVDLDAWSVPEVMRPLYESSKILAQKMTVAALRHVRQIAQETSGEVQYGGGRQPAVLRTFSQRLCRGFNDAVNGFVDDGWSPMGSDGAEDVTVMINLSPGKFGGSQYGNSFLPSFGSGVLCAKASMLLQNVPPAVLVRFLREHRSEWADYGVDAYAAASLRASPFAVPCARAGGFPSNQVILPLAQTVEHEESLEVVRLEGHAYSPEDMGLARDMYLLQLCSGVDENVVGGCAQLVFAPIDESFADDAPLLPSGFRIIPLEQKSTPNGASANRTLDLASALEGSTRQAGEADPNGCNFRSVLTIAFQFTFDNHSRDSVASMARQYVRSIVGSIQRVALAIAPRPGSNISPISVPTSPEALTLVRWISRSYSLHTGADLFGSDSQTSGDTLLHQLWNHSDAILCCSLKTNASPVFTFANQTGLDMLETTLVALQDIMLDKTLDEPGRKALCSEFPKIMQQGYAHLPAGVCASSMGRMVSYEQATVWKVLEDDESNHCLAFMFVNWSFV

[5] = molecular target: ZPR1-tdTomato-3xFLAG (Arabidopsis)

Measured: binding

B1: ATHB8 (protein, UniProt Q39123 1-833)
chain: MGGGSNNSHNMDNGKYVRYTPEQVEALERLYNDCPKPSSMRRQQLIRECPILSNIEPKQIKVWFQNRRCREKQRKEASRLQAVNRKLTAMNKLLMEENDRLQKQVSHLVYENSYFRQHPQNQGNLATTDTSCESVVTSGQHHLTPQHQPRDASPAGLLSIADETLTEFISKATGTAVEWVQMPGMKPGPDSIGIVAISHGCTGIAARACGLVGLDPTRVAEILKDKPCWLRDCRSLDIVNVLSTANGGTLELIYMQLYAPTTLAPARDFWMLRYTSVMEDGSLVICERSLNNTQNGPSMPPSPHFVRAEILPSGYLIRPCEGGGSILHIVDHFDLEPWSVPEVLRSLYESSTLLAQRTTMAALRYLRQISQEISQPNVTGWGRRPAALRALSQRLSKGFNEAVNGFSDEGWSILESDGIDDVTLLVNSSPTKMMMTSSLPFANGYTSMPSAVLCAKASMLLQNVPPSILLRFLREHRQEWADNSIDAYSAAAIKAGPCSLPIPRPGSFGGQVILPLAHTIENEEFMEVIKLESLGHYQEDMMMPADIFLLQMCSGVDENAVESCAELIFAPIDASFSDDAPIIPSGFRIIPLDSKSEGLSPNRTLDLASALDVGSRTAGDSCGSRGNSKSVMTIAFQLAFEMHMQENVASMARQYVRSVIASVQRVALALSPSSHQLSGLRPPPASPEAHTLARWISHSYRCYLGVDLLKPHGTDLLKSLWHHPDAVMCCSLKALSPVFTFANQAGLDMLETTLVALQDITLDKIFDNNNGKKTLSSEFPQIMQQGFMCMDGGICMSSMGRAVTYEKAVGWKVLNDDEDPHCICFMFLNWSFI
binds: all assays above

B2: PHAVOLUTA/ATHB9 (PHV) (protein, UniProt O04292 1-841)
chain: MMAHHSMDDRDSPDKGFDSGKYVRYTPEQVEALERVYAECPKPSSLRRQQLIRECPILCNIEPRQIKVWFQNRRCREKQRKESARLQTVNRKLSAMNKLLMEENDRLQKQVSNLVYENGFMKHRIHTASGTTTDNSCESVVVSGQQRQQQNPTHQHPQRDVNNPANLLSIAEETLAEFLCKATGTAVDWVQMIGMKPGPDSIGIVAVSRNCSGIAARACGLVSLEPMKVAEILKDRPSWFRDCRCVETLNVIPTGNGGTIELVNTQIYAPTTLAAARDFWTLRYSTSLEDGSYVVCERSLTSATGGPNGPLSSSFVRAKMLSSGFLIRPCDGGGSIIHIVDHVDLDVSSVPEVLRPLYESSKILAQKMTVAALRHVRQIAQETSGEVQYSGGRQPAVLRTFSQRLCRGFNDAVNGFVDDGWSPMSSDGGEDITIMINSSSAKFAGSQYGSSFLPSFGSGVLCAKASMLLQNVPPLVLIRFLREHRAEWADYGVDAYSAASLRATPYAVPCVRTGGFPSNQVILPLAQTLEHEEFLEVVRLGGHAYSPEDMGLSRDMYLLQLCSGVDENVVGGCAQLVFAPIDESFADDAPLLPSGFRVIPLDQKTNPNDHQSASRTRDLASSLDGSTKTDSETNSRLVLTIAFQFTFDNHSRDNVATMARQYVRNVVGSIQRVALAITPRPGSMQLPTSPEALTLVRWITRSYSIHTGADLFGADSQSCGGDTLLKQLWDHSDAILCCSLKTNASPVFTFANQAGLDMLETTLVALQDIMLDKTLDDSGRRALCSEFAKIMQQGYANLPAGICVSSMGRPVSYEQATVWKVVDDNESNHCLAFTLVSWSFV
binds: all assays above
